For at least one compound, name, drawing or mass did not settle the structure.
Assays:
[1] = test system: AAV-PTPN11^D61G-expressing mice; test: Morris water maze (hidden platform, probe trial) in AAV-PTPN11^D61G-expressing mice treated with SL327; type: in vivo; conditions: PTPN11^D61G/SL327 group; TQ vs. other quadrants
Description: To test whether reducing Erk activity could reverse the memory deficit in AAV-PTPN11^D61G-expressing mice, we treated these mice with the MEK inhibitor SL327 or vehicle daily, 30 min before training.
SL327 (Tocris) was dissolved in DMSO (16 mg/ml) and was injected intraperitoneally once daily, 30 min before the water maze experiment at a dose of 32 mg/kg. The volume of a single injection was under 80 μl. Lovastatin (Mevinolin, Sigma) was prepared as previously described^21. Briefly, lovastatin was dissolved in ethanol (final concentration of 8%) and 1N NaOH was added to convert mevinolin to the sodium salt. The pH of the final solution (4 mg/ml) was adjusted to 7.5 with HCl. The Vehicle solution was prepared with the same procedure. […]
The coding sequence of human PTPN11 with or without the D61G mutation was subcloned into the HindIII-NsiI site of the AAV expression vector pSOFF. […] Vector titers were determined by Real Time PCR. […]
In the hidden platform-version of Morris water maze, mice were trained with two blocks of 2 trials (ITI=1 min) spaced about 45 min apart. […] Memory was assessed in probe trials that were given after completion of training as described in the main text. […] Data were acquired and analyzed using WaterMaze software (Actimetrics).

[2] = test system: hippocampal slices from the AAV-PTPN11^D61G-infected mice; test: 5 TBS-induced CA1 Schaffer collateral LTP, extracellular field recordings, bath-applied SL327; type: cell-based; conditions: GFP and PTPN11^D61G overexpressing slices
From the text: FIG. 3 are graphs showing that PTPN11^D61G overexpression induces learning and memory and LTP deficits that can be reversed by MEK inhibition. Panel a) AAV5-PTPN11^D61G infection results in overexpression of SHP2^D61G. […] Panel b) PTPN11^D61G overexpression increases basal Erk activity (phospho-Erk level) and prevents further Eric activation in response to TBS. Left, Representative immunoblot showing p-Erk (upper) and total Eric (lower) in PTPN11^D61G-expressing slices and GFP-expressing slices. Slices were prepared 1 hr after TBS. […] Panels c and d) MEK inhibitor SL327 (CAS 305350-87-2) reverses spatial memory deficits in PTPN11^D61G-overexpressing mice. […]
For extracellular recordings of field excitatory postsynaptic potentials (fEPSP), sagittal slices (400 μm) were prepared with a vibratome (VT1000S, Leica) in ice-cold artificial cerebrospinal fluid (ACSF). […] Recording was performed in a submerged chamber perfused with ACSF (32° C.). fEPSPs were recorded with platinum-iridium electrodes placed in the CA1 stratum radiatum. […] Baseline responses were measured with stimulation (0.017 Hz, 0.1 ms pulse duration) at an intensity (typically 20-30 μA) that evoked a response that was approximately one third of the maximum evoked response. […] Initial fEPSP slopes were measured and normalized to the average of baseline (Clampfit 10.2).

## N#C/C(=C(/N)Sc1ccc(N)cc1)c1ccccc1C(F)(F)F [SL327]
[1]
  preference for the target quadrant, quadrant occupancy analysis: selectively searched in the target quadrant
[2]
  Paired-pulse facilitation: not affected
  basal synaptic transmission in CA3-CA1 synapses: did not affect

Source: patent publication US10835513B2, “Methods and treatments for the learning and memory deficits associated with Noonan syndrome” (The Regents of the University of California, priority 2013, dated 2020)
